Laboratory results: PMC4793087
These are yes or no findings as the source states them, for the method shown. Binding seen in cells or lysates may run through a third protein. Some binding calls cover weakened binding; strength is not graded here. Where a sequence is shown, tags or fusion partners need not be part of it.

Target: T1, S. cerevisiae Scc1 (wild type, epitope-tagged) (S. cerevisiae) (UniProt Q12158)
T1 sequence: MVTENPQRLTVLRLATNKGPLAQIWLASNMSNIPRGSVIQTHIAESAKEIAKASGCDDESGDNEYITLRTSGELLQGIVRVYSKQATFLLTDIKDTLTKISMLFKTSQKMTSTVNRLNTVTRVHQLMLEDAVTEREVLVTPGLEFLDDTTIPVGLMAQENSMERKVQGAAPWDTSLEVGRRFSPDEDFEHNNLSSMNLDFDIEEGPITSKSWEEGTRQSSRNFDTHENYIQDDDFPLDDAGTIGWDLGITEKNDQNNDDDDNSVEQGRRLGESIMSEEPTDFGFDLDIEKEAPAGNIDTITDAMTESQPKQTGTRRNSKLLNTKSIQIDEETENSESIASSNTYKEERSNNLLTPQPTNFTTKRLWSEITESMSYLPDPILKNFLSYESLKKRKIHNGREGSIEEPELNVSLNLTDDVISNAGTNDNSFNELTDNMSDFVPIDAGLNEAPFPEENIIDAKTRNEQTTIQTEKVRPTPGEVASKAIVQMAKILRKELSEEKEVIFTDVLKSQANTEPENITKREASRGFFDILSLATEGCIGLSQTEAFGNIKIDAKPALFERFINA
Experiment: co-IP; epitope-tagged S. cerevisiae strains, proteins expressed from endogenous promoters; IP of Scc1 with HA epitope-directed antibodies, PK epitopes detected by western blotting

binding: binds
B1: S. cerevisiae Pds5 (wild type, epitope-tagged) (protein, UniProt Q04264 1-1277)
chain: MAKGAVTKLKFNSPIISTSDQLISTNELLDRLKALHEELASLDQDNTDLTGLDKYRDALVSRKLLKHKDVGIRAFTACCLSDILRLYAPDAPYTDAQLTDIFKLVLSQFEQLGDQENGYHIQQTYLITKLLEYRSIVLLADLPSSNNLLIELFHIFYDPNKSFPARLFNVIGGILGEVISEFDSVPLEVLRLIFNKFLTYNPNEIPEGLNVTSDCGYEVSLILCDTYSNRMSRHLTKYYSEIIHEATNDDNNSRLLTVVVKLHKLVLRLWETVPELINAVIGFIYHELSSENELFRKEATKLIGQILTSYSDLNFVSTHSDTFKAWISKIADISPDVRVEWTESIPQIIATREDISKELNQALAKTFIDSDPRVRRTSVMIFNKVPVTEIWKNITNKAIYTSLLHLAREKHKEVRELCINTMAKFYSNSLNEIERTYQNKEIWEIIDTIPSTLYNLYYINDLNINEQVDSVIFEYLLPFEPDNDKRVHRLLTVLSHFDKKAFTSFFAFNARQIKISFAISKYIDFSKFLNNQESMSSSQGPIVMNKYNQTLQWLASGLSDSTKAIDALETIKQFNDERIFYLLNACVTNDIPFLTFKNCYNELVSKLQTPGLFKKYNISTGASIMPRDIAKVIQILLFRASPIIYNVSNISVLLNLSNNSDAKQLDLKRRILDDISKVNPTLFKDQIRTLKTIIKDLDDPDAEKNDNLSLEEALKTLYKASKTLKDQVDFDDTFFFTKLYDFAVESKPEITKYATKLIALSPKAEETLKKIKIRILPLDLQKDKYFTSHIIVLMEIFKKFPHVLNDDSTDIISYLIKEVLLSNQVVGDSKKEIDWVEDSLLSDTKYSAIGNKVFTLKLFTNKLRSIAPDVPRDELAESFTEKTMKLFFYLIASGGELISEFNKEFYPTPSNYQTKLRCVAGIQVLKLARISNLNNFIKPSDIIKLINLVEDESLPVRKTFLEQLKDYVANELISIKFLPLVFFTAYEPDVELKTTTKIWINFTFGLKSFKKGTIFERALPRLIHAIAHHPDIVGGLDSEGDAYLNALTTAIDYLLFYFDSIAAQENFSLLYYLSERVKNYQDKLVEDEIDEEEGPQKEEAPKKHRPYGQKMYIIGELSQMILLNLKEKKNWQHSAYPGKLNLPSDLFKPFATVQEAQLSFKTYIPESLTEKIQNNIKAKIGRILHTSQTQRQRLQKRLLAHENNESQKKKKKVHHARSQADDEEGDGDRESDSDDDSYSPSNKNETKKGHENIVMKKLRVRKEVDYKDDEDDDIEMT
